Laboratory results reported in patent publication US20230242871A1, “GENERATION OF PRIMORDIAL GERM CELLS AND METHODS OF USING THE SAME” (The Board of Trustees of the Leland Stanfor Junior …, priority 2020, published 2023).

Tested on: D3.5 SOX17-GFP+ PGCs
Test: High-throughput cell-surface marker screening (LEGENDScreen), %PE+
Assay type: cell-based, human
Conditions: percentage of cells bound to the PE-conjugated antibody (LEGENDScreen)

| Substance | % PE+ in PGCs [%] |
| --- | --- |
| CD217 | 0 |
| CD35 | 0 |
| C3aR | 0 |
| CD19 | 0 |
| CD31 | 0.02027 |
| CD61 | 0.9719 |
| CD140a | 0.05744 |
| CD360 | 0 |
| CD268 | 0.00504 |
| CD195 | 0.01384 |
| CD207 | 0 |
| CD29 | 0.9912 |
| CD49f | 0.9406 |
| CD22 | 0 |
| CD47 | 0.09756 |
| CD109 | 0.1197 |
| CD107a | 0.7059 |
| CD284 | 0 |
| CD49b | 0 |
| CXCR7 | 0.007053 |
| CD44 | 0 |
| Siglec-8 | 0 |

| Substance | % PE+ in PGCs [%] |
| --- | --- |
| Notch 4 | 0 |
| CD135 | 0 |
| CD80 | 0 |
| CD169 | 0 |
| CD154 | 0 |
| Notch 2 | 0.006504 |
| CD146 | 0.9288 |
| CD142 | 0.2296 |
| erbB3 | 0.5041 |
| CD160 | 0.003072 |
| DLL4 | 0 |
| CD100 | 0.003862 |
| CD48 | 0 |
| CD107b | 0.04037 |
| CD63 | 0.007308 |
| CD51 | 0.9743 |
| CD370 | 0 |
| CD115 | 0 |
| CD116 | 0.002924 |
| Notch 1 | 0.003419 |
| Siglec-10 | 0 |

Tested on: undifferentiated hPSC (D0)
Test: as above
Assay type: cell-based, human
Conditions: percentage of cells bound to the PE-conjugated antibody (LEGENDScreen)

| Substance | % PE+ in H1 UD |
| --- | --- |
| CD217 | 85.3% |
| CD35 | 3.22% |
| C3aR | 0.22% |
| CD19 | 0.062% |
| CD41 | 0.064% |
| CD31 | 0.36% |
| CD61 | 0.043% |
| CD140a | 0.12% |
| CD81 | 99.5% |
| CD360 | 8.46% and 4.55% |
| CD268 | 11.6% |
| CD195 | 0.041% |
| CD207 | 0.042% |
| CD29 | 99.8% |
| CD49f | 99.6% |
| CD22 | 0.094% |
| CD47 | 99.6% |
| CD109 | 44.2% |
| CD107a | 99.7% |
| CD284 | 0.9% |
| CD49b | 99.8% |
| CXCR7 | 1.02% |
| CD44 | 79.7% |

| Substance | % PE+ in H1 UD |
| --- | --- |
| Siglec-8 | 0.16% |
| Notch 4 | 0.51% |
| CD135 | 0.26% |
| CD80 | 0.064% |
| CD169 | 0.21% |
| CD154 | 0.16% |
| Notch 2 | 88.5% |
| CD146 | 91.7% |
| CD142 | 99.6% |
| erbB3 | 99.3% |
| CD160 | 1.32% |
| DLL4 | 0.1% |
| CD100 | 99.3% |
| CD48 | 2.17% |
| CD107b | 18.6% |
| CD63 | 99.5% |
| CD51 | 99.8% |
| CD370 | 0.084% |
| CD115 | 0.66% |
| CD116 | 0.9% |
| Notch 1 | 97.2% |
| Siglec-10 | 0.35% |

Tested on: D3.5 SOX17-GFP- non-PGCs
Test: as above
Assay type: cell-based, human
Conditions: percentage of cells bound to the PE-conjugated antibody (LEGENDScreen)

| Substance | % PE+ in non-PGCs |
| --- | --- |
| CD217 | 0.002933% |
| CD35 | 0.0007484% |
| C3aR | 0.000202% |
| CD19 | 2.761E-05% |
| CD31 | 0.0002732% |
| CD61 | 0.927% |
| CD140a | 0.3597% |
| CD360 | 0.001618% and 0.0001418% |
| CD268 | 0.005966% |
| CD195 | 0.02834% |
| CD207 | 0.0002535% |
| CD29 | 0.9988% |
| CD49f | 0.3889% |
| CD22 | 6.835E-05% |
| CD47 | 0.2702% |
| CD109 | 0.001618% |
| CD107a | 0.5091% |
| CD284 | 0.0006588% |
| CD49b | 0.0004254% |
| CXCR7 | 0.01142% |
| CD44 | 0% |
| Siglec-8 | 4.641E-05% |

| Substance | % PE+ in non-PGCs |
| --- | --- |
| Notch 4 | 6.498E-05% |
| CD135 | 0.0001421% |
| CD80 | 0.0005068% |
| CD169 | 0.000233% |
| CD154 | 0.0001621% |
| Notch 2 | 0.06203% |
| CD146 | 0.6474% |
| CD142 | 0.1744% |
| erbB3 | 0.1277% |
| CD160 | 0.005056% |
| DLL4 | 0% |
| CD100 | 0.001114% |
| CD48 | 0.0001518% |
| CD107b | 0.07137% |
| CD63 | 0.003238% |
| CD51 | 0.9709% |
| CD370 | 0.0001925% |
| CD115 | 0.001517% |
| CD116 | 0.03232% |
| Notch 1 | 0.0004548% |
| Siglec-10 | 0.01975% |

Where “and” joins values, the source holds several entries; their conditions need not be identical. Equal values may be shown once.
